This assay is described as follows: qHTS Assay for Lipid Storage Modulators in Drosophila S3 Cells.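 For cell number change: cells counted by Cell Tracker Red CMTPX staining in the red channel.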 As to conditions: BODIPY lipid droplet fluorescence, 18-24 h; for cell number change: measured here: cell count max response, cells fed with added oleic acid. The gist of the method: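 Drosophila S3 cells got compounds at several concentrations plus oleic acid (400 uM solution). Laser-scanning cytometry with 488 nm excitation read lipid droplets at 500-530 nm and cells at 575-640 nm. Percent activity was relative to 20 uM Triacsin C.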
A general note: Quantitative high-throughput screening tests each substance at several concentrations.

[1] abbreviates: measured here: lipid fluorescence (Fed channel) AC50, cells fed with added oleic acid.
Where [2] appears, read: measured here: cell number channel AC50, cells fed with added oleic acid.

The source of these data is PubChem BioAssay AID2685 (National Center for Advancing Translational Sciences (NCATS), 2010).

Some of the results follow. These are further read-outs of the screen, such as a control signal, another cell line or another target. No call is given for them. Most of these compounds were active or inconclusive in the main read-out, so they are no random draw. The note in brackets gives the kind of curve behind each potency; many fits are weak.

`O=C(NCc1ccccc1)c1cccnc1`: the cell number change worked out at 4.92%. Besides, the AC50 under setting [1] was 0.651 µM [rising, single point].
For `CCC(=O)OCC(=O)Nc1cc([N+](=O)[O-])ccc1OC`, the cell number change came out at 22.5%.
Take `Cc1cc(S(=O)(=O)N2CCCC2)ccc1OCC(=O)N1CCOCC1`: the cell number change was -2.54%. In addition, the AC50 under setting [2] was 0.0731 µM [falling, full curve, poor fit].
For the molecule `Cc1cc(C)c[n+](CC(=O)c2ccc(NC(=O)c3ccccc3)cc2)c1`, the cell number change is -44.7%. Besides, the AC50 under setting [2] is 29.1 µM [falling, single point]. Also, the AC50 under setting [1] was 23.1 µM [falling, partial curve, poor fit].
Take `COc1ccc(S(=O)(=O)N2CCOCC2)cc1NC(=O)C1COc2ccccc2O1` (stereo unspecified): the cell number change was -22%. In addition, under setting [1], the AC50 was 29.1 µM [falling, single point].
Turning to `O=C(Nc1cc(C(F)(F)F)ccc1-n1cncn1)c1ccc(Br)cc1`, the cell number change turned out to be 0.414%.
With `O=C(COC(=O)c1ccc2c(=O)n3c(nc2c1)CCC3)Nc1ccccc1F`, the cell number change worked out at 20.9%. In addition, the AC50 under setting [1] is 1.64 µM [rising, full curve, poor fit].
Regarding `CCC(C)(C)c1ccc(OCC(=O)N(C)C)c(C(C)(C)CC)c1`, the cell number change is -47.8%. Also, the AC50 under setting [2] is 7.31 µM [falling, full curve, poor fit].
On to `N#C[C@@H]1[C@@H]2C(=O)N(c3ccc4c(c3)OCCO4)C(=O)[C@@H]2C2c3ccccc3C=CN21` (stereo partly specified), for which the cell number change was -20.5%. The AC50 under setting [1] was 16.4 µM [falling, single point].
On to `COc1ccc(-c2csc(/C(C#N)=C(\O)CSc3nccn3C)n2)cc1OC`, for which the cell number change is -29.5%. Also, the AC50 under setting [2] was 0.411 µM [falling, full curve, poor fit].
Regarding `CN1CCCC(OC(=O)c2cc(F)c(F)c(F)c2F)C1` (stereo unspecified), the cell number change was -30.9%. Also, under setting [2], the AC50 is 20.6 µM [falling, single point].
Turning to `O=C(N/N=C/c1cccn1-c1ccc([N+](=O)[O-])cc1)C(O)c1ccccc1` (stereo unspecified), the cell number change was -23.5%. Also, the AC50 under setting [2] is 1.16 µM [falling, full curve, poor fit].
In the case of `CCCn1c(Nc2ccccc2)nc2ccccc21`, the AC50 under setting [1] was 0.651 µM [rising, full curve, poor fit].
Consider `COc1ccc(N2CCN(C(=O)COc3ccccc3)CC2)cc1`, for which the cell number change is -25.1%. The AC50 under setting [2] was 0.116 µM [falling, full curve, poor fit].
As to `CCOC(=O)C(NC(=O)c1ccccc1Cl)(Nc1ccc(C)c(C)c1)C(F)(F)F` (stereo unspecified), the cell number change is -67.2%. Besides, the AC50 under setting [2] is 10.3 µM [falling, partial curve]. Also, under setting [1], the AC50 is 6.51 µM [falling, full curve].
As for `COc1ccc(/C=C2\N=C3CCCCCN3C2=O)cc1`, the cell number change is -44.3%. Besides, the AC50 under setting [2] is 23.1 µM [falling, single point]. Moreover, the AC50 under setting [1] is 29.1 µM [falling, single point].
For `CC(C)CN(CCCNC(=O)CN1N=C(c2ccc(Cl)cc2)CCC1=O)CC(C)C`, the cell number change worked out at 29.8%. Besides, the AC50 under setting [2] is 3.66 µM [rising, full curve, poor fit]. In addition, the AC50 under setting [1] was 6.51 µM [falling, single point].
Regarding `CCOC(=O)N1CCN(C(=O)CSc2nnc(C3COc4ccccc4O3)o2)CC1` (stereo unspecified), the cell number change was -0.184%. The AC50 under setting [1] was 0.326 µM [falling, partial curve, poor fit].
As for `O=C(CN1C(=O)C2CC=CCC2C1=O)Nc1ccc(S(=O)(=O)N2CCOCC2)cc1` (stereo unspecified), the cell number change was -15%.
As to `CC(C)OCCCNC(=O)c1cc(Sc2ccc(F)cc2)nc2ccccc12`, the cell number change is 3.47%. Besides, the AC50 under setting [1] was 0.411 µM [rising, partial curve, poor fit].
On to `Cc1ccc(-n2c(=O)[nH]c3c(C(N)=O)nc(CC(C)C)nc32)cc1`, for which the AC50 under setting [2] was 6.51 µM [rising, single point].
Turning to `O=Cc1ccc(N2CCCCCC2)cc1`, the cell number change was 5.02%. Further, under setting [1], the AC50 is 6.51 µM [falling, single point].
On to `N#Cc1ccccc1COC(=O)CCCC1=NS(=O)(=O)c2ccccc2N1`, for which the cell number change was -21.5%. In addition, the AC50 under setting [1] was 29.1 µM [falling, single point].
As to `O=C(CSc1cccc[n+]1[O-])Nc1ccccc1Oc1ccccc1`, under setting [2], the AC50 was 0.731 µM [falling, single point].
`CCc1cccc(OCCCCNCCCOC)c1`: the cell number change amounted to 0.247%. The AC50 under setting [1] is 0.116 µM [falling, full curve, poor fit].
For the molecule `CO/N=C1\CCCc2c(C(=O)NN)sc(SC)c21`, the cell number change is 13.7%. The AC50 under setting [1] was 6.51 µM [rising, single point].
`O=C(CN(c1ccc2c(c1)OCCO2)S(=O)(=O)c1ccccc1)NCc1ccc(Cl)cc1`: the cell number change was found to be 6.52%. Besides, the AC50 under setting [1] was 1.84 µM [rising, full curve, poor fit].
Regarding `O=C(CSCc1ccccc1)N1CCN(S(=O)(=O)c2cccc(F)c2)CC1`, the cell number change is -14.2%. Further, under setting [1], the AC50 is 0.651 µM [rising, full curve, poor fit].
In the case of `O=C(O)/C=C/C(=O)NCCc1ccc(Cl)cc1`, the cell number change worked out at 5.25%. For the same molecule, under setting [1], the AC50 was 0.082 µM [falling, full curve, poor fit].
Turning to `C=CCn1c(N)c(C(=O)NCC2CCCO2)c2nc3ccccc3nc21` (stereo unspecified), the cell number change was -31.4%. Besides, the AC50 under setting [2] is 20.6 µM [falling, partial curve, poor fit]. The AC50 under setting [1] is 0.0517 µM [falling, full curve, poor fit].
Turning to `O=Nc1c(O)n(Cc2ccc(Cl)cc2Cl)c2ccccc12`, the cell number change was -64.1%. Also, under setting [2], the AC50 was 18.4 µM [falling, partial curve]. Under setting [1], the AC50 was 18.4 µM [falling, partial curve].
With `O=C(C1CCCO1)N1CCN(C(=S)Nc2ccccc2F)CC1` (stereo unspecified), the AC50 under setting [1] was 1.46 µM [falling, partial curve].
For `O=C(c1ccc(-c2nnc(Nc3ccccc3)c3ccccc23)cc1)N1C[C@H]2C[C@H](C1)c1cccc(=O)n1C2`, the cell number change is 78.9%. Moreover, the AC50 under setting [2] is 18.4 µM [rising, partial curve]. Under setting [1], the AC50 is 6.51 µM [rising, single point].
For `CN1CCC(N(C)C(=O)c2ccc(Cl)c(S(=O)(=O)N3CCCCC3)c2)CC1`, the AC50 under setting [1] was 29.1 µM [falling, single point].
With `O=C(COC(=O)COc1cccc(F)c1)NCCC1=CCCCC1`, the cell number change is -32.2%. In addition, the AC50 under setting [2] is 0.58 µM [falling, full curve]. Moreover, the concentration at half-maximal activity (AC50) under setting [1] is 25.9 µM [falling, single point].
As to `CC(C)(C)C(=O)[C@@H]1[C@@H]2C(=O)N(Cc3ccccc3)C(=O)[C@@H]2[C@H]2c3ccccc3C=CN12`, under setting [2], the concentration at half-maximal activity (AC50) is 3.66 µM [rising, single point].

In general, AC50 refers to the concentration giving half of the maximal activity seen. Low readings indicate activity at low concentration, high ones activity only at high concentration.
